In paper PMC5853841:
No constants are given. Whether binding was seen depends on the method and setting. Binding can be weak; no strength is given.

Molecular target: T1, AtSnRK1.1 (Arabidopsis) (UniProt Q38997)
T1 sequence: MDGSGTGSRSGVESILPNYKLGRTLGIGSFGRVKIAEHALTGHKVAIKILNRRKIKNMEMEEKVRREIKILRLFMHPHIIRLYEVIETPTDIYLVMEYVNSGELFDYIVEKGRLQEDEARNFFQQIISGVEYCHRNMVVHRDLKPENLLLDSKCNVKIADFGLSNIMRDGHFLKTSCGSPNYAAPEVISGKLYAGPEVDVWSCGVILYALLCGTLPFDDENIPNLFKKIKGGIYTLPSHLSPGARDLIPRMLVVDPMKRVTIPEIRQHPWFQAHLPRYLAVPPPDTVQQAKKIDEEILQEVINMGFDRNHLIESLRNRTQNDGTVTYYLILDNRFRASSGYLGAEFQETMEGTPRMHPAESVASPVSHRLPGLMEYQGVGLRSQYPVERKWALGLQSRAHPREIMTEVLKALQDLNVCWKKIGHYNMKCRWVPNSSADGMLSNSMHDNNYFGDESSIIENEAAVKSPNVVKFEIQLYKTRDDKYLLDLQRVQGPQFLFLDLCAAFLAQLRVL
Test: two-hybrid; pairwise; baits in pGBT9, preys in pGAD424; -T/-L as transformation control, -T/-L/-H/-A as screen

- binding: binds
Substance: AtJAZ3 (Arabidopsis)
